Reference: patent US12054744B2, “NK cells exhibiting an adaptive phenotype and methods for preparing and for using” (Regents of the University of Minnesota, priority 2015, dated 2024)
For at least one compound, name, drawing or mass did not settle the structure.

System: NK cells from CMV seropositive donors
Assay: Culture of CD3/CD19-depleted PBMCs from CMV seropositive donors with rapamycin; FACS phenotype, degranulation and TNF
Type: cell-based, human
Details: 10 micromolar rapamycin, 4 days

CO[C@H]1C[C@@H]2CC[C@@H](C)[C@@](O)(O2)C(=O)C(=O)N2CCCC[C@H]2C(=O)O[C@H]([C@H](C)C[C@@H]2CC[C@@H](O)[C@H](OC)C2)CC(=O)[C@H](C)/C=C(\C)[C@@H](O)[C@@H](OC)C(=O)[C@H](C)C[C@H](C)/C=C/C=C/C=C/1C [rapamycin]
differentiation of adaptive NK cells (CD57^+NKG2C^+) (vs DMSO): accelerated the differentiation program of adaptive NK cells
degranulation (CD107a) and TNF production (with or without CD16 stimulation): enhanced degranulation and tumor necrosis factor (TNF) production
